# Measured values from the supplement of paper PMC10338343.
# ± gives the standard deviation. Only a part is listed here, and it is no random draw. The uncertainty is large for many entries.
# Tested on: MIWI (PIWIL1) piRISC loaded with L1MC piRNA (30 nt)
# Assay: pre-steady-state target cleavage rate (min^-1); MIWI and MILI are mouse PIWI proteins and EfPiwi is from a freshwater sponge; tags in brackets are library labels; higher = faster piRNA-guided slicing of the target
# Details: guide: L1MC piRNA 5'p-UAACUAAAUACUAUGCAAGCUGUAGGUCCU; auxiliary factor: 500 nM mouse GTSF1
# Procedure, shortened: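 A transcribed, DNA-blocked target RNA library […] was incubated at 33 °C for 0–8 or 0–960 min with 1 nM active affinity-purified piRISC carrying one synthetic guide, in HEPES–potassium acetate buffer with or without 500 nM GTSF1 partner protein. Uncleaved targets were then sequenced and normalised to depth and to weakly complementary targets. Data from three trials were pooled, with k3 capped at 0.0001 min^-1, and a burst-and-steady-state fit yielded the pre-steady-state cleavage rate.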
# 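Further: 1 nM active piRISC with 0.1 nM target library at 33 °C single turnover.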
row,Sequence,pre-steady-state target cleavage rate
1,UGGACCUACAGCUUGCUAUGUAUUUACAAA,0.00302 ± 0.0033
2,AGGACCUCCAGCUUGCAUAGUAUUUAGUUA,1.22 ± 0.048
3,UCCUGGAUGUGCUUGAUAGUAUUUAGUUA,0.00346 ± 0.0047
4,UCGACCUACAGCUUCCAUAGUAAUUAGUUA,0.0526 ± 0.017
5,UGGACCUACAGCUUGCAUAGUAUUUAGUUC [g2:g29:cont:t1C],1.14 ± 0.068
6,UCGUCCUACAGCAUGCAUAGUAUUUAGUUA,1.26 ± 0.047
7,AGGACCUACAGCUUGCAUUGUAUUUAGUUA,0.926 ± 0.04
8,UCCACUCUACAGCUUGCAUAGUAUUUAGUUA,0.884 ± 0.029
9,AGGACCUACAGCAACCAUAGUAUUUAGUUA,0.426 ± 0.039
10,UCCUGGAUGUGCUUGCAAAGAAUUUAGUUA,0.00425 ± 0.0043
11,UCGACCUAACAGCUUGCAUAGUAUUUAGUUA,1.15 ± 0.069
12,UCGACCUACAGCUUGCAUAGUAUUAACAAA,0.401 ± 0.044
13,UCCUGGAACAGCUUGCAUAGUAUCUAGUUA,0.508 ± 0.045
14,UGGAGCCUACAGCUUGCAUAGUAUUUAGUUA,1.41 ± 0.1
15,AGGACCUUCAGCUUGGAUAGUAUUUAGUUA,1.48 ± 0.052
16,UCCUGGAUGUCGAACGUUAGUUUUAGUUA,0.000189 ± 0.021

# Entries 5 to 8 of the list above:
row,Sequence,pre-steady-state target cleavage rate
5,UGGACCUACAGCUUGCAUAGUAUUUAGUUC [g2:g29:cont:t1C],1.14 ± 0.068
6,UCGUCCUACAGCAUGCAUAGUAUUUAGUUA,1.26 ± 0.047
7,AGGACCUACAGCUUGCAUUGUAUUUAGUUA,0.926 ± 0.04
8,UCCACUCUACAGCUUGCAUAGUAUUUAGUUA,0.884 ± 0.029
